Source: US20150093752

Tested on: M.HpaII DNA cytosine-5 methyltransferase
Experiment: activity assay
Details: hmC at target C of CCGG; hmC to C; heat-inactivated control used; purified recombinant protein; label: 33P internal; variant of duplex VII:VIII C (nonspecific-C)

Question: For “TGACCCACGCTCGCC / ACATAATTTATCTCCGGGCGAGCGTGGGTCA [duplex VII:VIII hmC]”, which “activity on this sequence” value is on record?
Answer: Its value is “active”.

For at least one entry, the source does not settle the construct or the ends of the probe.
